Results of single-concentration screens

Chains of the proteins cited; added tags and fusions are not shown. Residues count along the entry.
UniProt Q8IDJ8, 1-583: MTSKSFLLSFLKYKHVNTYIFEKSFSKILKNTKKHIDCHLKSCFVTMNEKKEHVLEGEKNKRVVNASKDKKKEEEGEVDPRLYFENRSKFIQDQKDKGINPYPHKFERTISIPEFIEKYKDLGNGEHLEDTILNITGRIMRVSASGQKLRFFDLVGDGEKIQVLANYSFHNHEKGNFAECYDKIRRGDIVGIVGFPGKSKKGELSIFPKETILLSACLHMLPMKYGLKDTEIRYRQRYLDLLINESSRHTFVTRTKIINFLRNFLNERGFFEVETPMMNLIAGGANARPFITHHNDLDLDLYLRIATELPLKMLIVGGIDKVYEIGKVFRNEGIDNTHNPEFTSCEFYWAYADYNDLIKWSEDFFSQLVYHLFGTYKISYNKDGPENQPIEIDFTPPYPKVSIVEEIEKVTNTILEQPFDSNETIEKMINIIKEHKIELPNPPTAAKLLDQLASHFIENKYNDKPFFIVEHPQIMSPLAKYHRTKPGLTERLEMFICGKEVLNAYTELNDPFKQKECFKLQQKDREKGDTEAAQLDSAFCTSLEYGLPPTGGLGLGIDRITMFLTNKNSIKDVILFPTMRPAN
UniProt Q4DA54, 1-478: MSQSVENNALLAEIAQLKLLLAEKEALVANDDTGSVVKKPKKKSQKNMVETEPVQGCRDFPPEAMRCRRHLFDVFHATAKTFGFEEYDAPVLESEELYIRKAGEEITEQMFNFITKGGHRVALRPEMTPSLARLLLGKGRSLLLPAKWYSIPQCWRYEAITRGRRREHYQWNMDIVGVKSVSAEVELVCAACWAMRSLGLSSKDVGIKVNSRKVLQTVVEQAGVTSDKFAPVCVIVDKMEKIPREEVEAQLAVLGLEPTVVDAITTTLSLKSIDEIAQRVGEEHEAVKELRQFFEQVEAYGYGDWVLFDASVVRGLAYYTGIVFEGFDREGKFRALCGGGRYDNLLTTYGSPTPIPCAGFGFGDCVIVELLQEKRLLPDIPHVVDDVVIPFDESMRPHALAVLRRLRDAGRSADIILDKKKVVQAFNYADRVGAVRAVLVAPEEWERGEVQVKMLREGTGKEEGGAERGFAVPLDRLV
UniProt I6X8D2, whole entry: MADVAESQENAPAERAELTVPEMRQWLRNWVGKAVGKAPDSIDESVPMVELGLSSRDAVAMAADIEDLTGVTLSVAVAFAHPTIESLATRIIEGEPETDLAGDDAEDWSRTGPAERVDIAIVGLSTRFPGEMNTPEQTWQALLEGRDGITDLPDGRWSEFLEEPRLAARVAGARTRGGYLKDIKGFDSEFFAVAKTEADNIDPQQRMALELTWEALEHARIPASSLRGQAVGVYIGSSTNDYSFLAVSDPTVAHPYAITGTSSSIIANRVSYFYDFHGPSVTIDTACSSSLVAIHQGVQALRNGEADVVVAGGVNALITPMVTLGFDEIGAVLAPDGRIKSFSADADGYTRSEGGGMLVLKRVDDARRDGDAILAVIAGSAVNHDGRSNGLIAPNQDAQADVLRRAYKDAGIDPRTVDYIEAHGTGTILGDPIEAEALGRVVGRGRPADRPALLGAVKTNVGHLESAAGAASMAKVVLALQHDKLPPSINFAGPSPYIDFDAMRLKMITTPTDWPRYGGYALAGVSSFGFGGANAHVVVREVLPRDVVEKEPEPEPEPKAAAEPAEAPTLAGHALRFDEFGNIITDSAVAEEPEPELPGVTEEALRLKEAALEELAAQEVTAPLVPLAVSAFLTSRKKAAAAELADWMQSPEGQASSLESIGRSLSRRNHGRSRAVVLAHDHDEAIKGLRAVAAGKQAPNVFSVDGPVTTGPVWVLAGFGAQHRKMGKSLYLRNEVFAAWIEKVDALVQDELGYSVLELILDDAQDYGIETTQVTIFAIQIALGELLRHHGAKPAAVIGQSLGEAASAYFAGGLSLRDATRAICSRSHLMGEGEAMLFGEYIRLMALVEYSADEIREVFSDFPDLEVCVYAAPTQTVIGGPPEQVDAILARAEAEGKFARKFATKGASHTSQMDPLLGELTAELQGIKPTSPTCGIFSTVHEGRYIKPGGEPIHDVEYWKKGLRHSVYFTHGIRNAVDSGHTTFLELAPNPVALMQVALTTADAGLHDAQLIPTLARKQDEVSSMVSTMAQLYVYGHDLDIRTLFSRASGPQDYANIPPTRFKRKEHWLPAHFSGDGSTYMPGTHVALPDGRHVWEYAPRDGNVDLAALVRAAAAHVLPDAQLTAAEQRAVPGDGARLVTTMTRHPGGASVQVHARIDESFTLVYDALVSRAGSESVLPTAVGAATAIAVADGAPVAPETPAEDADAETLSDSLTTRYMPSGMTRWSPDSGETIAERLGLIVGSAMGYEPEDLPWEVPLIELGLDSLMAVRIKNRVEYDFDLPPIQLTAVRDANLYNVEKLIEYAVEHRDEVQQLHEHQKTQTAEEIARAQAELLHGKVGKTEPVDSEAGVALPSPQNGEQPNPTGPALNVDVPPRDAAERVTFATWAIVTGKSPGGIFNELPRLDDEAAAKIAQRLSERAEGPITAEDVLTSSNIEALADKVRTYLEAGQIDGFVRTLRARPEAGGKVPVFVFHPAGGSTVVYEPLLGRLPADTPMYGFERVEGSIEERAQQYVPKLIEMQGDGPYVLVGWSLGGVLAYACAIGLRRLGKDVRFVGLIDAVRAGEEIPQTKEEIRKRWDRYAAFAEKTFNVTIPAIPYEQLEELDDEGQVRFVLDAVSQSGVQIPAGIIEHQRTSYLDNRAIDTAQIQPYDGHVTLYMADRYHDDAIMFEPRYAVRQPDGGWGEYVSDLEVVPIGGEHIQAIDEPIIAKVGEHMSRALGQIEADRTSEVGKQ

From ChEMBL document CHEMBL3988442, “University of Dundee, Small-Polar-MMV Screening Library” (2021).

PfKRS1: 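Enzyme assay of the cytosolic lysyl-tRNA synthetase in 384-well plates, read by luminescence. Target: Lysine-tRNA ligase, Plasmodium falciparum 3D7 (UniProt Q8IDJ8). Tested at 30 µM. Higher reads as stronger inhibition, judged from the few compounds that gave an IC50. About 69,000 compounds were tested under these conditions; 0.071% (about 49) showed 50% or more at least once.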
TcHisRS: 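Histidine-tRNA ligase, Trypanosoma cruzi CL Brener (UniProt Q4DA54). Enzyme assay of histidyl-tRNA synthetase; the read-out is not stated. Concentration: 30 µM. Higher reads as stronger inhibition (inferred: compounds with an IC50 in retests scored well above the rest). Of about 69,000 compounds tested this way, about 31 (0.045%) reached 50% or more in at least one test.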
Pks13 thioesterase: 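Polyketide synthase Pks13, Mycobacterium tuberculosis (UniProt I6X8D2). Enzyme assay of the thioesterase domain of polyketide synthase 13; the read-out is not stated. Compounds at 30 µM. Higher reads as stronger inhibition (inferred from which compounds were picked for retests). Of about 67,000 compounds tested this way, about 300 (0.46%) reached 50% or more in at least one test.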

Values are the deposited “Percent Effect”, in %.
The record does not define 0% and 100%; most values in the screen are far below 50% and negative numbers occur (in some assays of this library far below -100).
Compounds were drawn at random from those tested, without regard to their results.

Cc1nnc([C@]23COC[C@H]2CN(Cc2nccs2)C3)o1 gave PfKRS1: 0.5493%; TcHisRS: 2.454%; Pks13 thioesterase: -25.81%. CN(C(=O)CN1CCC(c2cc3ccccc3[nH]2)CC1)C1CC1 gave PfKRS1: 6.71%; TcHisRS: 2.941%; Pks13 thioesterase: -33.03%. CCOc1ncccc1C(=O)N1CCCC(c2nncn2C)C1 (centres undefined) read PfKRS1: -1.585%; TcHisRS: 6.706%; Pks13 thioesterase: -16.23%. COCCN(C)C(=O)Nc1ccc2c(ccn2CCOC)c1 gave PfKRS1: 4.353%; TcHisRS: 3.261%; Pks13 thioesterase: -25.12%. Result for CC(C)c1nc(C2CCCN2Cc2ccno2)no1 (centres undefined) was PfKRS1: 7.222%; TcHisRS: 9.924%; Pks13 thioesterase: -1.826%. Result for Brc1ccc(-c2nnc(CN(Cc3cccs3)CC3CCCO3)o2)s1 (centres undefined) was PfKRS1: 8.35%; TcHisRS: 11.67%; Pks13 thioesterase: -7.343%. With O=c1cc(C2CCNCC2)nc(CCc2ccccn2)[nH]1 the screen gave PfKRS1: 4.698%; TcHisRS: 0.8%; Pks13 thioesterase: -10.38%. For COc1ccc(-c2cc(C3CCOC3)c(C#N)c(N)n2)cn1 (centres undefined) the result was PfKRS1: 2.297%; TcHisRS: 5.102%; Pks13 thioesterase: -27.83%.

For c1ccc(-n2nnnc2CNCc2ccc3c(c2)OCCO3)cc1 the result was PfKRS1: -0.9442%; TcHisRS: 6.211%; Pks13 thioesterase: -6.437%. Result for COCc1nccc(C2CCCN(Cc3ccc(C#N)cc3)C2)n1 (centres undefined) was PfKRS1: -0.2844%; TcHisRS: 18.97%; Pks13 thioesterase: 4.738%. For OC(COCc1ccccc1F)CN1CCC(Cn2cccn2)CC1 (centres undefined) the result was PfKRS1: -0.2505%; TcHisRS: -1.442%; Pks13 thioesterase: -0.04035%. With COCc1ccc(CNC(=O)C2=NN(c3ccccc3)C(=O)CN2)cc1 the screen gave PfKRS1: 6.925%; TcHisRS: 0.8475%; Pks13 thioesterase: -4.497%. CCN1CC2(CCC1=O)CCN(Cc1cccc(C#N)c1)CC2 gave PfKRS1: 5.32%; TcHisRS: 5.844%; Pks13 thioesterase: -12.83%. CCN(CC)S(=O)(=O)N1CCC(c2nccn2Cc2ccccn2)CC1 read PfKRS1: 4.152%; TcHisRS: -0.5435%; Pks13 thioesterase: -58.7%. CC(C)NC(=O)c1nnn(-c2ccc(F)cc2)c1C1CC1 gave PfKRS1: 4.025%; TcHisRS: 4.911%; Pks13 thioesterase: -8.983%. Result for CNC(=O)C1(c2cnccn2)CCCN1C(=O)c1cccc(C)n1 (centres undefined) was PfKRS1: 1.132%; TcHisRS: 4.255%; Pks13 thioesterase: -2.613%.

For CCN1CC2(CC1=O)CN(Cc1ccco1)CCN(C(=O)N(C)C)C2 (centres undefined) the result was PfKRS1: 0.8118%; TcHisRS: 2.479%; Pks13 thioesterase: -14.04%. Cc1cc(C)nc(Nc2nccnc2C2CCCN(CCO)C2)n1 (centres undefined) read PfKRS1: 1.236%; TcHisRS: 4.286%; Pks13 thioesterase: 0.1311%. For O=C(N1CCCC(n2cncn2)C1)C1(c2cccc(F)c2)CC1 (centres undefined) the result was PfKRS1: 0.601%; TcHisRS: 3.468%; Pks13 thioesterase: -1.346%. With COCCCNC(=O)C1CN(C(=O)c2cnccn2)C1 the screen gave PfKRS1: 6.123%; TcHisRS: -9.278%; Pks13 thioesterase: -27.1%. Result for O=C(NCCCN1CCOCC1)c1ccc(-n2ccc3ccccc32)s1 was PfKRS1: 5.524%; TcHisRS: 11.56%; Pks13 thioesterase: 16.89%. CCc1nc(CN2CCCN(C(=O)C(CC)OC)CC2)cs1 (centres undefined) read PfKRS1: -1.856%; TcHisRS: 5.764%; Pks13 thioesterase: -6.499%. Cc1cc(CN(C)C(=O)c2ccc(Cl)cc2N2CCCC2=O)no1 gave PfKRS1: 0.2504%; TcHisRS: 1.754%; Pks13 thioesterase: -2.581%. COc1cccc(CN2CCCC3(CCN(C(=O)[C@H]4CCCO4)C3)C2)c1 (some centres undefined) read PfKRS1: 5.322%; TcHisRS: 3.759%; Pks13 thioesterase: -3.353%.

Cc1ccc(S(=O)(=O)N2CSCC2C(=O)NCC(F)(F)F)cc1C (centres undefined) read PfKRS1: 0.3969%; TcHisRS: 2.254%; Pks13 thioesterase: -91.38%. For COCCN(C(=O)c1ccsc1)c1ccc(C#N)cc1 the result was PfKRS1: 2.843%; TcHisRS: 4.902%; Pks13 thioesterase: -26.5%. CC(C)c1cc(C(=O)NCC(O)C2CCOCC2)nn1C(C)(C)C (centres undefined) gave PfKRS1: 0.9182%; TcHisRS: 6.173%; Pks13 thioesterase: -4.616%. With Cc1nc(C)c(CN2CCOC[C@H](Oc3cnccn3)C2)s1 the screen gave PfKRS1: 3.078%; TcHisRS: -1.493%; Pks13 thioesterase: -12.41%. With NC(=O)C1CN(Cc2c(O)ccc3oc4c(c23)CCCC4)CCO1 (centres undefined) the screen gave PfKRS1: 5.27%; TcHisRS: 5.195%; Pks13 thioesterase: -24.31%. Result for CCOC(=O)CN1CCC2(CC1)CC(=O)c1ccc3ccccc3c1O2 was PfKRS1: 1.141%; TcHisRS: -5.682%; Pks13 thioesterase: -5.804%. For CC(C)c1nn(C)c(Cl)c1CNCc1ccc(N(C)C)nc1 the result was PfKRS1: -1.543%; TcHisRS: 7.101%; Pks13 thioesterase: -0.1587%. For Cc1cccc(C(Nc2nccc(C)n2)C2CC2)n1 (centres undefined) the result was PfKRS1: 6.144%; TcHisRS: 3.863%; Pks13 thioesterase: -12.01%.

CC(Cn1cccn1)NCCS(=O)(=O)c1ccccc1 (centres undefined) read PfKRS1: 5.034%; TcHisRS: 1.19%; Pks13 thioesterase: -19.7%. For NC(=O)C1CCN(c2nc3nccc(-c4ccccc4)c3c(=O)[nH]2)CC1 the result was PfKRS1: 0.6746%; TcHisRS: -1.653%; Pks13 thioesterase: -5.284%. CN(Cc1cccc2cccnc12)C1CCS(=O)(=O)C1 (centres undefined) read PfKRS1: 0.717%; TcHisRS: 4.887%; Pks13 thioesterase: -17.39%. For COc1c(C2CCCN2C(=O)c2c(C)noc2C)c(C)nn1C (centres undefined) the result was PfKRS1: -0.5525%; TcHisRS: 3.429%; Pks13 thioesterase: -3.649%. Cc1nc2ccccc2c(=O)n1Cc1nnnn1C1CC1 gave PfKRS1: 1.627%; TcHisRS: 3.896%; Pks13 thioesterase: -7.183%. O=C(CCCc1nnc(-c2ccccc2)o1)N1CCC1 gave PfKRS1: 3.332%; TcHisRS: 1.153%. Result for CCc1nc(C2CCCN2CC(=O)N2CCCc3ccccc32)no1 (centres undefined) was PfKRS1: -0.7382%; TcHisRS: 13.45%; Pks13 thioesterase: -19.17%.

3 of the entries, repeated:

For CCOC(=O)CN1CCC2(CC1)CC(=O)c1ccc3ccccc3c1O2 the result was PfKRS1: 1.141%; TcHisRS: -5.682%; Pks13 thioesterase: -5.804%.
For CC(Cn1cccn1)NCCS(=O)(=O)c1ccccc1 (centres undefined) the result was PfKRS1: 5.034%; TcHisRS: 1.19%; Pks13 thioesterase: -19.7%.
For O=C(NCCCN1CCOCC1)c1ccc(-n2ccc3ccccc32)s1 the result was PfKRS1: 5.524%; TcHisRS: 11.56%; Pks13 thioesterase: 16.89%.